We go through 14 compounds from PubChem BioAssay (NCATS).

This is one part of the list. The main result of the screen is listed elsewhere. These columns were measured beside it and carry no call. The list favours compounds with an active or inconclusive main result. Words in brackets tell the shape of the fitted curve; partial curves, single points and poor fits give uncertain potencies.

This experiment can be described thus: S16 Schwann cell PMP22 intronic element beta-lactamase assay (AID 624044). The conditions noted are these: S16 rat Schwann cells, PMP22 element beta-lactamase FRET, 24 h; measured here: 460 nm blue channel. In short, it runs like this:
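Beta-lactamase reporter under a PMP22 intronic regulatory element in stable S16 rat Schwann cells; 24 h compound exposure. 460 nm blue signal normalized between DMSO (0%) and potassium clavulanate, with 535 nm FRET tracking viability; curves classed by r2 and response.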
In the case of `O=C(O)c1cc(=O)c2ccccc2o1`, the AC50 is 25.1 µM [rising, single point].
On to `Cc1[nH]cnc1CN1CCc2c(c3ccccc3n2C)C1=O`, for which the AC50 is 5.01 µM [falling, full curve, poor fit].
To `CC1=CC(=C(c2ccc(N)cc2)c2ccc(N)cc2)C=CC1=N` belongs 2.82 µM [falling, full curve]; to `CCCCCCCCCCCC[n+]1ccc2ccccc2c1`, 17.8 µM [falling, partial curve].
To `C[C@]12CCC(=O)C=C1CC[C@@H]1[C@@H]2[C@@H](O)C[C@@]2(C)[C@H]1CC[C@]2(O)C(=O)COP(=O)(O)O` belongs 8.91 µM [falling, partial curve, poor fit]; to `C=C1CC[C@H](O)C/C1=C/C=C1\CCC[C@]2(C)[C@@H]([C@H](C)CCCC(C)(C)O)CC[C@@H]12`, 14.1 µM [falling, single point].
For the compound `CC(C)Cc1ccc([C@@H](C)C(=O)NS(C)(=O)=O)cc1`, the AC50 is 0.631 µM [falling, full curve, poor fit].
To `Cc1nc2ccccc2n1Cc1ccc(Cl)cc1` belongs 14.1 µM [falling, single point]; to `NC(=S)NS(=O)(=O)c1ccc(N)cc1`, 0.999 µM [falling, full curve].
To `NCC[C@H](O)C(=O)N[C@@H]1C[C@H](N)[C@@H](O[C@H]2O[C@H](CN)CC[C@H]2N)[C@H](O)[C@H]1O[C@H]1O[C@H](CO)[C@@H](O)[C@H](N)[C@H]1O` belongs 12.6 µM [rising, single point].
The figure for `CC(=O)OCC(=O)[C@@]12OC(C)(C)O[C@@H]1C[C@H]1[C@H]3C[C@H](F)C4=CC(=O)C=C[C@@]4(C)[C@]3(F)[C@H](O)C[C@@]12C` is 0.0213 µM [falling, full curve, poor fit]; for `COC(=O)c1cccnc1` it is 2.24 µM [falling, full curve, poor fit].
On to `CN=C(NC#N)Nc1ccc(C2=NNC(=O)CC2C)cc1` (centres undefined), for which the AC50 was 19.9 µM [falling, single point].
To `Nc1nc2[nH]cc(CCc3ccc(C(=O)NC(CCC(=O)O)C(=O)O)cc3)c2c(=O)[nH]1` (centres undefined) belongs 0.0794 µM [falling, full curve, poor fit].
